Measured values from article doi:10.1101/2022.04.07.487468.

Molecular target: zfRor2-ΔCRD-mCherry (zebrafish)
Assay: fluorescence cross-correlation spectroscopy

B1: zfWnt5b-GFP (ligand, UniProt Q92050 22-363)
chain: QLLVVANSWWSLAMNPIQRPEMYIIGAQPLCSQLTGLSQGQRKLCQLYQDHMVYIGEGAKTGIKECQYQFRQRRWNCSTVDNTSVFGRVMHIGSRETAFTYAVSAAGVVNAVSRACREGELSTCGCSRAARPRDLPRDWLWGGCGDNVNYGYRFAREFVDAREREKNYPRGSVEHARTLMNLQNNEAGRMAVYNLANVACKCHGVSGSCSLKTCWLQLADFRRVGEFLKEKYDSAAAMRINRRGKLELVNNRFNPPTGEDLVYIDPSPDYCLRNETTGSLGTQGRLCNKTSEGMDGCELMCCGRGYDQFKTYKHERCHCKFHWCCYVKCKRCTSLVDQFVCK
With B1 the binding was “no binding (tested: >6678nM)”.

Results are given in words; binding and its absence hold for the method and conditions named. Sequences can lack the tags named with a protein.
